The values below come from PMC5996148.

“And” between values parts separate entries of the source, which are not always exact repeats. Equal entries are not always repeated. The list shows a part of the results. For some of these results: Construct or isoform of the protein are uncertain.

Some test systems named below: SPAG16 (human); SPAG6 (human); SPAG8 (human); SPAG9 (human); SPDEF (human); SPG21 (human); SPHK1 (human); SSBP3 (human).
What all share (test): protein microarray (ProtoArray v5.0), streptavidin-Alexa Fluor 647
Holding throughout (details): 3'-biotin; 20 mM Tris (pH 7.5), 5 mM MgCl2, 100 mM KCl, 0.1% Tween-20, A/T-rich and random oligonucleotide blockers; temperature not stated; high values mean tight binding

The target in a further assay is T1, SPRR4 (UniProt Q96PI1).
T1 sequence: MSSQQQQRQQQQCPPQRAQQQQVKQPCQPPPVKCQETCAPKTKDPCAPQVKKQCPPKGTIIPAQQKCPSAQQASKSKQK

A further assay deals with T2, SS18L2 (UniProt Q9UHA2).
T2 sequence: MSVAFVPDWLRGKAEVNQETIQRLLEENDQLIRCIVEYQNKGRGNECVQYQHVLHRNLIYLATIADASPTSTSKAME

On to “GGGGACAGGGGTATGGGGAGGGG [G4-3 biotinylated (CtG)]”, for which the binding signal with SPAG16 (human) is -0.333 z-score; with SPAG6 (human), -0.319 z-score; in the assay with SPAG8 (human), -0.321 z-score; in the assay on SPAG9 (human), -0.309 z-score; in the assay with SPDEF (human), -0.331 z-score; in the assay with SPG21 (human) it was -0.342 z-score. Further, the binding signal in the assay with SPHK1 (human) was -0.318 z-score; in the assay with SPRR4 it was 5.25 z-score; in the assay with SS18L2, -0.336 z-score; with SSBP3 (human), -0.35 z-score and -0.346 z-score.
